Test results: the supplement of paper PMC10849652
The other results are listed elsewhere or left out.

Chains of the proteins cited; added tags and fusions are not shown. Lines headed by an entry give the natural chain unless they say otherwise; changes in a name come on top.
UniProt Q96LJ7: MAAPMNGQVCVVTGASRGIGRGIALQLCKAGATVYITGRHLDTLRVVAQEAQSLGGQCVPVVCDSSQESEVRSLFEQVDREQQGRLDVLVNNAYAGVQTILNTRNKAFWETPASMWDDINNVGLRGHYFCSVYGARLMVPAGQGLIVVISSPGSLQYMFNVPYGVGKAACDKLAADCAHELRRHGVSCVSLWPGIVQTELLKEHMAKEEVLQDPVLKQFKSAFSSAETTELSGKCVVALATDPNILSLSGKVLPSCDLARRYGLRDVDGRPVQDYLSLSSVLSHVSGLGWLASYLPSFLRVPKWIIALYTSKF
UniProt Q9UBS4: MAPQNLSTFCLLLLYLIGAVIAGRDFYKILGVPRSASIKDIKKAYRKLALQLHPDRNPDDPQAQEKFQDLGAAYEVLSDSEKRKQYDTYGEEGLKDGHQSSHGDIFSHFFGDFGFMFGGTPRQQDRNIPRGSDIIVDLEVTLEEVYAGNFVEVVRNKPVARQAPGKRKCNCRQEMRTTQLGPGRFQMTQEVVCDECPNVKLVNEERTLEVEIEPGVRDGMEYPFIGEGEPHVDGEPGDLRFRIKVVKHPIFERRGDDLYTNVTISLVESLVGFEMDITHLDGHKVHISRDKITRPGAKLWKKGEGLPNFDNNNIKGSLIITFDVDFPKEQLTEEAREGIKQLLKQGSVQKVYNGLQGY
UniProt P50570: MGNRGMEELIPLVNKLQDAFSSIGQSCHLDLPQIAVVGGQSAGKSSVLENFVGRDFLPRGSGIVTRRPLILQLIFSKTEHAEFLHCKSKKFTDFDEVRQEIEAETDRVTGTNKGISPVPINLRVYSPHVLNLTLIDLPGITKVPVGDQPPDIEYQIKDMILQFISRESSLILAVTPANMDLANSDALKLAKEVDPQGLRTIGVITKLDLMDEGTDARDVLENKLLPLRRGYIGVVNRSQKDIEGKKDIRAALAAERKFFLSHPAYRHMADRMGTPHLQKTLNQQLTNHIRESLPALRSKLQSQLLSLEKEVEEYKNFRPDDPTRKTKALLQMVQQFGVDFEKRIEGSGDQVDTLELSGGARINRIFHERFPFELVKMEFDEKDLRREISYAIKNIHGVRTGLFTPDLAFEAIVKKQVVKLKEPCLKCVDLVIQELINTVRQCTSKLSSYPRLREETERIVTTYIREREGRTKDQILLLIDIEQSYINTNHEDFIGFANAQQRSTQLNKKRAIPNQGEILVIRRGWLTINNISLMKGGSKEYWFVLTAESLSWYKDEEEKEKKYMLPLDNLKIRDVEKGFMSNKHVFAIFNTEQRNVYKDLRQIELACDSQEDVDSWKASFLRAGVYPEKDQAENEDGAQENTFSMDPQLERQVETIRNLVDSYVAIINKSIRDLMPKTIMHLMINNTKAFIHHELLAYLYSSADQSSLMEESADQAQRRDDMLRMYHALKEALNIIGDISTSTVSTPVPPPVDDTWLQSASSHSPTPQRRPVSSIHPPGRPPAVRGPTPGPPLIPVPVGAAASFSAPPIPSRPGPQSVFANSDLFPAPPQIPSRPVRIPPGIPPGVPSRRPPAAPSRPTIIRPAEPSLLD
UniProt Q07687: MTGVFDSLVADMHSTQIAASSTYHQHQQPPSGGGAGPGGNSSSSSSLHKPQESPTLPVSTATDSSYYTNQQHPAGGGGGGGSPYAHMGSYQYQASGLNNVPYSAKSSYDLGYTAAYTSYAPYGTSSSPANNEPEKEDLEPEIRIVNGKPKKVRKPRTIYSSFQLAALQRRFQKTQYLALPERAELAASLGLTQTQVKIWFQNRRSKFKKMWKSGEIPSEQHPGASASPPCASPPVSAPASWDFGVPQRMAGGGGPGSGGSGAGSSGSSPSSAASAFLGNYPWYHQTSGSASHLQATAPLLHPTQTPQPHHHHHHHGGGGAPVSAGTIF
UniProt Q9H3H5: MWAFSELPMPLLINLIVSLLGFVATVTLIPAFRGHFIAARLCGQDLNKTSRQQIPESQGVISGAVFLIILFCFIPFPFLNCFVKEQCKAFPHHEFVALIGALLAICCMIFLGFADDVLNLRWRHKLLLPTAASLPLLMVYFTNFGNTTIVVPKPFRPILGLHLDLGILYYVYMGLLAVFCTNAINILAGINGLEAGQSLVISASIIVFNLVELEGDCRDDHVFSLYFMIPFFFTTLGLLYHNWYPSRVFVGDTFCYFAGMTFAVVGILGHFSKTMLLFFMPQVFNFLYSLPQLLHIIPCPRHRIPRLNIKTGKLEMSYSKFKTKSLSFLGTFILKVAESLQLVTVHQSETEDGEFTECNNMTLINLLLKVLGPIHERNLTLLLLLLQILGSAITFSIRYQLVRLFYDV
UniProt Q96GE9: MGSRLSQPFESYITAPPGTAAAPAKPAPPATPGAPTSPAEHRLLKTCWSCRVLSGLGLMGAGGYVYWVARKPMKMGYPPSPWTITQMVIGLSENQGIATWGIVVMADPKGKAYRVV
UniProt Q6Y2X3: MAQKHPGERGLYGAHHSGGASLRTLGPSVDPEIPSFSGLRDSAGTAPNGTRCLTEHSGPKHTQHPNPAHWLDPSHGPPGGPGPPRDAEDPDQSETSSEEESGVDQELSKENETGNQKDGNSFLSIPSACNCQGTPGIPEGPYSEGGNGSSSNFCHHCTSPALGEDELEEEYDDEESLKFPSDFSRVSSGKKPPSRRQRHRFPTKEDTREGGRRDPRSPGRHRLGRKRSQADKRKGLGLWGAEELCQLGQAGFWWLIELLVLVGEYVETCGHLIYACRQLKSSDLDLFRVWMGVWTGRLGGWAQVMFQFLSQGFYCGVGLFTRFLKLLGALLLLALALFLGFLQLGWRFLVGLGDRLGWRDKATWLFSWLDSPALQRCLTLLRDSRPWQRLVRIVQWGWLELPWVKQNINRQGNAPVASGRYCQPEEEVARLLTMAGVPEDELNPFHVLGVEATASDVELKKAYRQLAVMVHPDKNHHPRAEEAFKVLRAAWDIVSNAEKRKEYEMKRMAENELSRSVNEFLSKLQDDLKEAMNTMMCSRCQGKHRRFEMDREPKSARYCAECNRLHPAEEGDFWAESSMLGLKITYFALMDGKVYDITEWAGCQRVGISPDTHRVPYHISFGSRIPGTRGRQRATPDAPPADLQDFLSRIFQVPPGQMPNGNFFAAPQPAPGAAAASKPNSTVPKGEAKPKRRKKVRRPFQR
UniProt O60496: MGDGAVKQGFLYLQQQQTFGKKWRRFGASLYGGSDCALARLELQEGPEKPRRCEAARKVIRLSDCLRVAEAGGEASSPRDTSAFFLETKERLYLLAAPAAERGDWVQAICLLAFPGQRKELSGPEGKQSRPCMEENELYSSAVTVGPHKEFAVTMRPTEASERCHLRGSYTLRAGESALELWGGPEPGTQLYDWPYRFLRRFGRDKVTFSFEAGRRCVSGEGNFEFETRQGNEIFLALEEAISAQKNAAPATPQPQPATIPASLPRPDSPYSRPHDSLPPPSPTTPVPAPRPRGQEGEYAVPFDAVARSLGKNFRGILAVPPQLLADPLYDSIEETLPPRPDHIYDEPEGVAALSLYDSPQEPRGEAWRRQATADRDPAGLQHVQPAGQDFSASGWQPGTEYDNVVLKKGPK
UniProt P23743: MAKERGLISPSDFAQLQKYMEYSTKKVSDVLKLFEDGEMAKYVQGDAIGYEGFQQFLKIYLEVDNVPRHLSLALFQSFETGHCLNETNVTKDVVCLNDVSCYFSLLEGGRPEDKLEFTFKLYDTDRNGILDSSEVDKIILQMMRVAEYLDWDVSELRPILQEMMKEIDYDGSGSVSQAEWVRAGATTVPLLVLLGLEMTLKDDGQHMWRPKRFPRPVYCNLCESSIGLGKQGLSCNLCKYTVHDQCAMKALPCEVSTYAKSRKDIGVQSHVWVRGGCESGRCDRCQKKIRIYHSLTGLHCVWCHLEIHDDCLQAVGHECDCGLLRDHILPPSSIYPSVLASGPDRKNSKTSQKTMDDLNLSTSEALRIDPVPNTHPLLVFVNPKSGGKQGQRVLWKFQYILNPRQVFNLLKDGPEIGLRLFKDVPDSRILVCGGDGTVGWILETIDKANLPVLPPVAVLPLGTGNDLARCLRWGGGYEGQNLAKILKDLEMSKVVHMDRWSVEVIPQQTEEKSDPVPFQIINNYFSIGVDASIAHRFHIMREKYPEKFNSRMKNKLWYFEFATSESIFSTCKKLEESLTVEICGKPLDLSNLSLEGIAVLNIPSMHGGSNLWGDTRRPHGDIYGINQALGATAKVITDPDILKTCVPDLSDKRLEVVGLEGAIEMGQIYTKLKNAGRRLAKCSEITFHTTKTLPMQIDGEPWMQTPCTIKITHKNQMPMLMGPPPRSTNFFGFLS
UniProt Q5SXM8: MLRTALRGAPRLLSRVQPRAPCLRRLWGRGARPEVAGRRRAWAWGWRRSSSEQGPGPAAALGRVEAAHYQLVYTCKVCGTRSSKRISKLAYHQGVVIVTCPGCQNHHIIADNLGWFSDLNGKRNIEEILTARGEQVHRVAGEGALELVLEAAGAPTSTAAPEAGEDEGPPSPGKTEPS
UniProt P49184: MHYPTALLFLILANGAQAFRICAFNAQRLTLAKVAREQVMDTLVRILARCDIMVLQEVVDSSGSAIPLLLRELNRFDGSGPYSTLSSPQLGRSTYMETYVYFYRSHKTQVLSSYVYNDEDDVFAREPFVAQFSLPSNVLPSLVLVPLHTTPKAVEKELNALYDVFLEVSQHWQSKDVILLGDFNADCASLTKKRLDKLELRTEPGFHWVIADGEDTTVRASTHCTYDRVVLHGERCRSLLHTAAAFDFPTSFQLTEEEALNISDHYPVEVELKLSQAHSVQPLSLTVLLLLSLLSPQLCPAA
UniProt Q96HY7: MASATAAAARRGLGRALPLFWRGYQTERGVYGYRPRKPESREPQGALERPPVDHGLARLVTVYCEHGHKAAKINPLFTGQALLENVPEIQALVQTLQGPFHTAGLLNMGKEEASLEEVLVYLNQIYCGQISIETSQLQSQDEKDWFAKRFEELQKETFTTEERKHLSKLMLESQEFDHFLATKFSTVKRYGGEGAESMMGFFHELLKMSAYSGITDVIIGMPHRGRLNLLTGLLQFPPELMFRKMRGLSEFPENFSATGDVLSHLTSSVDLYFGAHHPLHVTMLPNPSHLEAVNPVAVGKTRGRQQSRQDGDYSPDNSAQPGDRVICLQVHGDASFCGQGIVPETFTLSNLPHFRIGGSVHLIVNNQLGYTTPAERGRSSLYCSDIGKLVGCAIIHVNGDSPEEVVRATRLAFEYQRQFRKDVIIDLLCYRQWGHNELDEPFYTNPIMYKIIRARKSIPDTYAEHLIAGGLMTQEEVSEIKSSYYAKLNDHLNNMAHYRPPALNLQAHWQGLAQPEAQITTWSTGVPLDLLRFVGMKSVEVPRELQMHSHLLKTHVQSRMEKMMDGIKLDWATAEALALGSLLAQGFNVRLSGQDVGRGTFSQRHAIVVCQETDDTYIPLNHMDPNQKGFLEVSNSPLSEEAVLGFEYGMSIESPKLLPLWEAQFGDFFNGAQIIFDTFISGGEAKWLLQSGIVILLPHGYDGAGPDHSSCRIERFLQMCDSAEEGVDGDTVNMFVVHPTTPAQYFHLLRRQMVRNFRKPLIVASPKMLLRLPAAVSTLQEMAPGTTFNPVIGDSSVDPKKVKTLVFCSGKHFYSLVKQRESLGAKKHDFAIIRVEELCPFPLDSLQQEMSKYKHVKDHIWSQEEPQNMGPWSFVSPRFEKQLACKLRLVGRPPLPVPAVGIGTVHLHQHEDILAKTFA
UniProt Q05193: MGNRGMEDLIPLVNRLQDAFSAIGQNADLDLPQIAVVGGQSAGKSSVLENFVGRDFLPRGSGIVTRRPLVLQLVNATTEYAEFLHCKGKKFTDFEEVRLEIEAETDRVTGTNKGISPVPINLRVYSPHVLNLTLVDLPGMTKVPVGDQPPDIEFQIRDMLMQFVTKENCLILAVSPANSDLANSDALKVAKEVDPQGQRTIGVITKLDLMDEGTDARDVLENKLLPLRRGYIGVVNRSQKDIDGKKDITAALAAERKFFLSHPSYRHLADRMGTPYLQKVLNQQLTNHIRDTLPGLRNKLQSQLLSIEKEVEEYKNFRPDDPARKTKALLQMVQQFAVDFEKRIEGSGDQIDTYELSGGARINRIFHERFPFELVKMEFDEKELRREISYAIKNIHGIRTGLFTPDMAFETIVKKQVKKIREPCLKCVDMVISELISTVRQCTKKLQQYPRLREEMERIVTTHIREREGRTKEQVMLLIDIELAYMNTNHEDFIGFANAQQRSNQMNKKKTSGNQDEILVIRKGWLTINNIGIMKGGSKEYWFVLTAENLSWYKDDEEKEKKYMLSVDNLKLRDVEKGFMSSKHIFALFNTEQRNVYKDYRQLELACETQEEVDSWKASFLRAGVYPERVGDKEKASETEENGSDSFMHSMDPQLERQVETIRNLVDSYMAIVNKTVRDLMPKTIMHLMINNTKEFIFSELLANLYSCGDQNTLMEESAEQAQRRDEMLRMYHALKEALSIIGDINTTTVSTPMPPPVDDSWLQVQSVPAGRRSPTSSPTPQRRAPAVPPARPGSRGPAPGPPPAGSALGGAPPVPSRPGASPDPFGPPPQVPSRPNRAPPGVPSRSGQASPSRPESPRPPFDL

How the values were obtained:
Assay in all cases: log2 fold change, soluble protein after heating vs DMSO (PISA); higher = thermal stabilisation; K562 lysate, 10 uM; active = over 0.2 and 3.5 SD of the protein, either way, in both replicates (recomputed)
erlotinib = compound: C#Cc1cccc(Nc2ncnc3cc(OCCOC)c(OCCOC)cc23)c1 [erlotinib]
Outline: (§1)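 The values are log-two fold changes in thermal stability compared with solvent controls and come from duplicates. They were obtained by TMTpro 16plex LC-MS/MS, with channel sums equalised, on the supernatant after 21,000xg for 90 min. That supernatant came from crude K562 extract at 1 mg/mL protein treated with 10 μM compound for 30 min, heated for 3 min across 48°C-58°C, pooled and brought to 0.5% NP-40 at 4°C.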

[1] = compound: C/C(=N\NC(=O)C1=CC(=CC=C1)S(=O)(=O)N2CCOCC2)/C3=C(C=CC(=C3)Cl)O
Outline: as §1

[2] = compound: C1=CC(=CC=C1C2=NC3=C(N2)C=C(C=C3)C(=O)N)OC4=CC=C(C=C4)Cl
Outline: as §1

[3] = compound: C1=CC2=C(C=CC(=C2)/C=C\3/C(=O)NC(=NCC4=CC=CS4)S3)N=C1
Outline: as §1

[4] = compound: C1=CC2=NC=CN=C2C=C1/C=C/3\C(=O)NC(=O)S3
Outline: as §1

[5] = compound: C1=CC=C2C(=C1)C3=NNC4=CC=CC(=C43)C2=O
Outline: as §1

[6] = compound: C1CCN(C1)C(=O)NC2=CC=CC(=C2)NC3=NC=C(C(=N3)NCCC4=CN=CN4)Br
Outline: as §1

[7] = compound: C1CN(CCC1(CC2=CC=C(C=C2)Cl)N)C3=NC=NC4=C3C=CN4
Outline: as §1

[8] = compound: C1=CC=C(C=C1)C2=NC(=C(N2)C3=CC=NC=C3)C4=CC(=C(C=C4)Cl)O
Outline: as §1

IRAK-1-4 Inhibitor I = compound: C1COCCN1CCN2C3=CC=CC=C3N=C2NC(=O)C4=CC(=CC=C4)[N+](=O)[O-] [IRAK-1-4 Inhibitor I]
Outline: as §1

Row | Target | log2 fold change (erlotinib) | log2 fold change [1] | log2 fold change [2] | log2 fold change [3] | log2 fold change [4] | log2 fold change [5] | log2 fold change [6] | log2 fold change [7] | log2 fold change [8] | log2 fold change (IRAK-1-4 Inhibitor I)
1 | DNAJB2 (UniProt P25686) | inactive: 0.082 | inactive: 0.037 | inactive: -0.013 | inactive: 0.176 | inactive: 0.277 | inactive: -0.028 | inactive: 0.018 | inactive: -0.122 |  | 
2 | DHRS1 (UniProt Q96LJ7) | inactive: 0.024 | active: 0.898 | inactive: -0.017 | inactive: -0.008 | inactive: -0.036 | inactive: 0.05 | inactive: -0.052 | inactive: 0.105 | active: 0.654 | inactive: -0.051
3 | DHX29 (UniProt Q7Z478) | inactive: -0.02 | inactive: -0.077 | inactive: -0.01 | inactive: -0.019 | inactive: -0.005 | inactive: 0.017 | inactive: -0.013 | inactive: -0.001 | inactive: 0.004 | inactive: -0.005
4 | DNTTIP2 (UniProt Q5QJE6) | inactive: -0.028 | inactive: -0.31 | inactive: 0.06 | inactive: -0.189 | inactive: -0.108 | inactive: 0.07 | inactive: -0.008 | inactive: -0.024 |  | 
5 | DOCK11 (UniProt Q5JSL3) | inactive: -0.005 | inactive: 0.012 | inactive: 0.009 | inactive: 0.036 | inactive: 0.012 | inactive: -0.045 | inactive: -0.028 | inactive: 0.003 | inactive: -0.048 | inactive: 0.014
6 | DLGAP4 (UniProt Q9Y2H0) | inactive: -0.024 | inactive: -0.006 | inactive: 0.037 | inactive: -0.019 | inactive: 0.023 | inactive: 0.086 | inactive: 0.002 | inactive: -0.004 | inactive: -0.001 | inactive: -0.045
7 | DHX32 (UniProt Q7L7V1) | inactive: -0.083 | inactive: -0.091 | inactive: 0.098 | inactive: -0.052 |  | inactive: 0.038 | inactive: -0.145 | inactive: 0.044 | inactive: 0.013 | inactive: 0.036
8 | DOCK2 (UniProt Q92608) | inactive: 0.182 | inactive: 0.317 | inactive: 0.074 | inactive: -0.041 |  | inactive: -0.099 | inactive: 0.023 | inactive: -0.054 | inactive: -0.003 | inactive: -0.082
9 | DNAJB11 (UniProt Q9UBS4) | inactive: -0.006 | inactive: -0.01 | inactive: 0.002 | inactive: -0.02 | inactive: -0.045 | inactive: -0.021 | inactive: -0.009 | inactive: 0.011 | inactive: -0.024 | inactive: 0.018
10 | DMBT1 isoform 6 (UniProt Q9UGM3) |  | inactive: 2.26 |  | inactive: 0.311 |  | inactive: -0.385 | inactive: -0.038 | inactive: -0.239 |  | 
11 | DNAH12 (UniProt Q6ZR08) |  | inactive: 0.112 |  | inactive: -0.041 | inactive: -0.089 | inactive: -0.101 |  |  |  | 
12 | DNM2 isoform 4 (UniProt P50570) | inactive: 0.099 |  | inactive: 0.107 |  |  |  | inactive: -0.11 | inactive: -0.011 | inactive: 0.072 | inactive: 0.133
13 | DLX2 (UniProt Q07687) | inactive: 0.154 |  | inactive: 0.109 |  |  |  |  |  | inactive: -0.08 | inactive: 0.129
14 | DGCR6L (UniProt Q9BY27) |  |  |  |  |  |  |  |  | inactive: -0.059 | inactive: 0.025
15 | DNAJB14 (UniProt H7C494) |  |  |  |  |  |  |  |  | inactive: -0.034 | inactive: -0.05
16 | DNMT1 (UniProt P26358) |  |  |  |  | inactive: -0.058 |  |  |  | inactive: 0.044 | inactive: -0.007
17 | DLG1 isoform 3 (UniProt Q12959) |  |  |  |  | inactive: -0.078 |  |  |  | inactive: -0.093 | inactive: 0.001
18 | DMD isoform 14 (UniProt P11532) |  |  |  |  | inactive: -0.038 |  |  |  | inactive: -0.007 | inactive: -0.119
19 | DPAGT1 (UniProt Q9H3H5) | inactive: -0.043 |  | inactive: 0.059 |  | inactive: 0.043 |  |  |  | inactive: -0.082 | inactive: -0.027
20 | DNAJC16 (UniProt Q9Y2G8) |  |  |  |  | inactive: -0.069 |  |  |  | inactive: -0.069 | inactive: -0.327
21 | DMAC1 (UniProt Q96GE9) |  | inactive: 0.025 |  | inactive: 0.056 |  | inactive: -0.18 |  |  | inactive: -0.088 | inactive: -0.041

Row | Target | log2 fold change (erlotinib) | log2 fold change [1] | log2 fold change [2] | log2 fold change [3] | log2 fold change [4] | log2 fold change [5] | log2 fold change [6] | log2 fold change [7] | log2 fold change [8] | log2 fold change (IRAK-1-4 Inhibitor I)
22 | DNAJC14 (UniProt Q6Y2X3) |  |  |  |  |  |  | inactive: 0.275 | inactive: 0.054 | inactive: -0.089 | inactive: 0.106
23 | DOP1B (UniProt Q9Y3R5) |  | inactive: -0.124 |  | inactive: -0.07 |  | inactive: -0.024 |  |  |  | 
24 | DNMT3B (UniProt Q9UBC3) |  | inactive: -0.162 |  | inactive: 0 |  | inactive: -0.053 | inactive: 0.166 | inactive: -0.18 | inactive: 0.063 | inactive: -0.065
25 | DLC1 (UniProt Q96QB1) |  |  |  |  | inactive: -0.078 |  | inactive: -0.116 | inactive: -0.039 | inactive: -0.024 | inactive: -0.072
26 | DOK2 (UniProt O60496) | inactive: 0.105 |  | inactive: -0.081 |  |  |  |  |  | inactive: 0.067 | inactive: 0.196
27 | DOCK11, A0A0J9YW64 |  |  |  |  | inactive: -0.106 |  |  |  |  | 
28 | DGKA (UniProt P23743) |  | inactive: -0.177 |  | inactive: 0.018 | inactive: 0.022 | inactive: -0.099 | inactive: 0.022 | inactive: 0.021 | inactive: 0.429 | inactive: -0.364
29 | DNLZ (UniProt Q5SXM8) | inactive: -0.101 |  | inactive: -0.036 |  |  |  |  |  | inactive: -0.025 | inactive: -0.01
30 | DNPEP (UniProt C9JBE1) |  | inactive: 0.011 |  | inactive: -0.061 | inactive: -0.02 | inactive: -0.206 | inactive: -0.003 | inactive: -0.079 |  | 
31 | DNPEP (UniProt B9ZVU2) | inactive: -0.035 |  | inactive: -0.022 |  |  |  | inactive: -0.015 | inactive: 0.063 | inactive: -0.014 | inactive: 0.037
32 | DHRS13 (UniProt Q6UX07) | inactive: 0.227 |  | inactive: -0.074 |  | inactive: -0.142 |  |  |  | inactive: 0.133 | inactive: -0.162
33 | DNASE1L1 (UniProt P49184) |  |  |  |  |  |  |  |  | inactive: 0.007 | inactive: 0.098
34 | DHTKD1 (UniProt Q96HY7) | inactive: 0.065 |  | inactive: 0.015 |  | inactive: 0.029 |  |  |  | inactive: -0.04 | inactive: 0.011
35 | DNAJB1 (UniProt M0R128) | inactive: -0.072 |  | inactive: 0.111 |  | inactive: -0.052 |  |  |  | inactive: 0.125 | inactive: 0.098
36 | DONSON (UniProt Q9NYP3) | inactive: 0 |  | inactive: 0.051 |  | inactive: 0.014 |  |  |  | inactive: 0.06 | inactive: -0.021
37 | DIPK1A (UniProt Q5T7M9) |  |  |  |  |  |  | inactive: 0.039 | inactive: -0.059 |  | 
38 | DOP1A (UniProt Q5JWR5) |  |  |  |  | inactive: 0.002 |  | inactive: 0.051 | inactive: -0.005 |  | 
39 | DNAJB9 (UniProt Q9UBS3) | inactive: 0.014 |  | inactive: 0 |  |  |  |  |  | inactive: -0.019 | inactive: -0.416
40 | DLG5 (UniProt Q8TDM6) |  | inactive: -0.202 |  | inactive: -0.12 | inactive: 0.034 | inactive: -0.115 |  |  |  | 
41 | DLGAP5 isoform 3 (UniProt Q15398) |  |  |  |  | inactive: -0.009 |  |  |  |  | 
42 | DNM1 (UniProt Q05193) | inactive: -0.017 |  | inactive: -0.087 |  | inactive: -0.123 |  |  |  | inactive: 0.14 | inactive: 0.014
